Results deposited as PubChem BioAssay AID743454 (Peter MacCallum Cancer Centre, 2014)
The whole screen tested about 18,000 reagents; below is a part drawn at random. Over the whole deposit, 450 (2.5%) got an active call. 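Single biological run; no consistent viability z cut-off exists, so the class columns, not z-scores, define the calls.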

Test: 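Genes whose loss kills vorinostat-resistant colon cancer cells under vorinostat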 (primary screen)
Cell system: human HCT116-VR colon cancer cells, selected for vorinostat resistance
Knock-down reagent: siRNA pool against human genes, 40 nM siRNA pool
Timing: vorinostat for 24 h, read-out about 72 h after transfection
Challenge: vorinostat at 2.5 µM final
Detection: 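Cell viability by CellTiter-Fluor and caspase 3/7 activity by luminescence, each scaled to mock wells per plate, duplicates averaged, then robust z-scored over all plates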
Direction: viability robust z-score: higher = more viable cells than screen typical; caspase robust z-score: higher = more caspase 3/7 activity than screen typical
Hit rule: 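Hits are knock-downs in viability class RV1/RV2 or caspase class CA1/CA2, excluding ones that killed cells in the no-drug cell-count arm; hits then retested with single siRNAs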

| target gene | viability hit class | caspase hit class | viability robust z-score | caspase robust z-score | outcome |
| --- | --- | --- | --- | --- | --- |
| MPV17L2 (MPV17 mitochondrial inner membrane protein like 2) | no change | no change | -0.26 | 0.53 | inactive |
| PHAX (phosphorylated adaptor for RNA export) | no change | no change | -1.26 | -1.25 | inactive |
| SFTA2 (surfactant associated 2) | no change | no change | -0.4 | -0.66 | inactive |
| SLC19A2 | no change | no change | 1.21 | -0.5 | inactive |
| RWDD2A (RWD domain containing 2A) | no change | CA1 (caspase activation) | 0.56 | 5.83 | active |
| CERCAM (cerebral endothelial cell adhesion molecule) | no change | no change | 0.54 | -0.88 | inactive |
| ZC3H3 (zinc finger CCCH-type containing 3) | no change | no change | 0.05 | 0.02 | inactive |
| ALG1L1P (ALG1 like 1, pseudogene) | no change | no change | 0.28 | -0.24 | inactive |
| AP1B1 (adaptor related protein complex 1 subunit beta 1) | no change | no change | -1.22 | 2.09 | inactive |
| FAM20B (FAM20B glycosaminoglycan xylosylkinase) | no change | no change | 0.92 | -1.16 | inactive |
| TAF1 (TATA-box binding protein associated factor 1) | no change | no change | -0.32 | -0.54 | inactive |
| LIFR (LIF receptor subunit alpha) | no change | no change | 0.29 | -0.77 | inactive |
| CHP1 (calcineurin like EF-hand protein 1) | no change | no change | 0.53 | -0.26 | inactive |
| HES2 (hes family bHLH transcription factor 2) | no change | no change | 1.25 | 0.29 | inactive |
| ZNF229 (zinc finger protein 229) | no change | no change | -0.38 | -0.48 | inactive |
| TFAP2B (transcription factor AP-2 beta) | no change | no change | 1.01 | 0.38 | inactive |
| IGFBP1 (insulin like growth factor binding protein 1) | no change | no change | -0.01 | -1.27 | inactive |
| GUF1 (GTP binding elongation factor GUF1) | no change | no change | 0.68 | -0.46 | inactive |
| GFER (growth factor, augmenter of liver regeneration) | no change | no change | -1.75 | 0.37 | inactive |
| ATOX1 (antioxidant 1 copper chaperone) | no change | no change | -1.07 | 2.78 | inactive |
| SH3GL1 (SH3 domain containing GRB2 like 1, endophilin A2) | no change | no change | -0.46 | -0.12 | inactive |
| PDXDC1 (pyridoxal dependent decarboxylase domain containing 1) | no change | no change | -0.77 | -0.41 | inactive |
| SPAG5 (sperm associated antigen 5) | no change | no change | -0.37 | -0.03 | inactive |
| CCR3 (C-C motif chemokine receptor 3) | no change | no change | 0.26 | 0.48 | inactive |
| OR7C2 (olfactory receptor family 7 subfamily C member 2) | no change | no change | -1.9 | 0.62 | inactive |
| YTHDC1 (YTH N6-methyladenosine RNA binding protein C1) | no change | no change | -2.06 | 4.82 | inactive |
| H3C11 (H3 clustered histone 11) | no change | no change | -0.38 | 0.02 | inactive |
| MRPS17 (mitochondrial ribosomal protein S17) | no change | no change | -0.98 | 2.12 | inactive |
| TBXA2R (thromboxane A2 receptor) | no change | no change | -1.66 | -0.63 | inactive |
| RPS6KA6 (ribosomal protein S6 kinase A6) | no change | no change | -0.38 | 1.97 | inactive |
| SLC30A7 | no change | no change | 0.3 | -0.91 | inactive |
| STAG3L1 (STAG3 cohesin complex component like 1 (pseudogene)) | no change | no change | -0.72 | -0.28 | inactive |
| TBX21 (T-box transcription factor 21) | no change | no change | -1.16 | 0.89 | inactive |
| POM121L2 (POM121 transmembrane nucleoporin like 2) | no change | no change | -0.46 | 2.2 | inactive |
| OR6K6 (olfactory receptor family 6 subfamily K member 6) | no change | no change | -0.4 | -0.27 | inactive |
| TSPAN1 (tetraspanin 1) | no change | no change | 0.86 | -0.88 | inactive |
| DOCK8-AS1 (DOCK8 antisense RNA 1) | no change | no change | -0.08 | 0.5 | inactive |
| PRSS36 (serine protease 36) | no change | no change | 0.48 | -0.44 | inactive |
| IMMT (inner membrane mitochondrial protein) | no change | no change | 1.07 | -0.69 | inactive |

3 entries from above in another layout.
target gene | viability hit class | caspase hit class | viability robust z-score | caspase robust z-score | outcome
POM121L2 (POM121 transmembrane nucleoporin like 2) | no change | no change | -0.46 | 2.2 | inactive
OR6K6 (olfactory receptor family 6 subfamily K member 6) | no change | no change | -0.4 | -0.27 | inactive
TSPAN1 (tetraspanin 1) | no change | no change | 0.86 | -0.88 | inactive
